Among the data in paper PMC13375895 are binding values, retold here.

Chains of the proteins cited; added tags and fusions are not shown.
UniProt Q60960: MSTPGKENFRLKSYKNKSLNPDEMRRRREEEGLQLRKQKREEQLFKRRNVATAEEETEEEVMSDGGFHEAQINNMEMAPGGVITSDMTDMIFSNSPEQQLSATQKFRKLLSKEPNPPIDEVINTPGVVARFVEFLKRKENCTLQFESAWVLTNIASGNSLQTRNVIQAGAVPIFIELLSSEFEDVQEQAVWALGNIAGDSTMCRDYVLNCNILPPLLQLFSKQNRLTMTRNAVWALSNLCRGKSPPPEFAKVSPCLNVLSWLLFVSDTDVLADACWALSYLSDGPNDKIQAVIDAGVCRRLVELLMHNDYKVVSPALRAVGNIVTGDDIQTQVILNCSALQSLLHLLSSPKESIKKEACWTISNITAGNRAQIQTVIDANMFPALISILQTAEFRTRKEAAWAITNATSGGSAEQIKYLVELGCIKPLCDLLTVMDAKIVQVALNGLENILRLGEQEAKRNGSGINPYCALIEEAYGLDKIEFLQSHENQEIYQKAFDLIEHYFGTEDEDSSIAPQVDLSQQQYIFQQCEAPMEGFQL

Assay [1] addresses KPNA1-myc (importin subunit alpha 5) (UniProt Q60960). Kind of assay: co-IP; lysates of transfected cells (1 μg of each plasmid) in IP lysis buffer (20 mM Tris-HCl, 150 mM NaCl, 1 mM EDTA, 1% Triton X-100); antibody (anti-MYC among those listed) on Protein G Sepharose, 2 h at 4°C; Western blot. (In general: A western blot detects proteins with antibodies after separation by electrophoresis.)

Assay [2] has as its target KPNA1 (endogenous, mouse P10 cortex) (mouse (endogenous in P10 cortex)) (UniProt Q60960). Description: co-IP; P10 mouse cortical lysates in IP lysis buffer; IPs with anti-PCDH19, anti-KPNA1 and IgG on Protein G Sepharose, 2 h at 4°C; Western blot.

These are yes or no findings as the source states them, for the method shown. Binding seen in cells or lysates may run through a third protein. Some results given as binding are weak or reduced against the parent protein; the word gives no strength. For part of these data: Where a sequence is shown, tags or fusion partners need not be part of it.

B1: PCDH19-ICD-HA (intracellular domain of mouse Protocadherin 19, 700-1145 aa, with an added methionine and a C-terminal HA tag) (domain or fragment, UniProt Q80TF3 700-1145)
chain: MAIKCKRDNKEIRTYNCSNCLTITCLLGCFIKGQNSKCLHCISVSPNSEEQDKKAEEKVSLRGKRIAEYSYGHQKKSSKKKKISKNDIRLVPRDVEETDKMNVVSCSSLTSSLNYFDYHQQTLPLGCRRSESTFLNVENQNTRNTTASHIYHHSFNSQGPQQPDLIINGVPLPETENYSFDSNYVNSRAHLIKSSSTFKDLEGNSLKDSGHEESDQTDSEHDVQRSLYCDTAVNDVLNTSVTSMGSQMPDHDQNEGFHCREECRILGHSDRCWMPRNPMPTRSKSPEHVRNIIALSIEATAADVEAYDDCGPTKRTFATFGKDVSSHRAEERPILKGKRTVDVTICSPKVNSAIREAGNGCEAISPVTSPLHLKSPLPTKPSISYTVALAPPAHDLEHHANSGASRPSEAEPRGADNEKVMHEVNPIRKDGRDKESPSVKRLKDIVL
Take B1: the binding entry in assay [1] was “binds”.

B2: PCDH19-FL-HA (full-length mouse Protocadherin 19 with a C-terminal HA tag) (protein, UniProt Q80TF3 22-1145)
chain: LINLKYSVEEEQRAGTVIANVAKDAREAGFALDPRQASAFRVVSNSAPHLVDINPSSGLLVTKQKIDRDLLCRQSPKCIISLEVMSSSMEICVIKVEIKDLNDNAPSFPAAQIELEISEAASPGTRIPLDSAYDPDSGSFGVQTYELTPNELFGLEIKTRGDGSRFAELVVEKSLDRETQSHYSFRITALDGGDPPHMGTVGLSIKVTDSNDNNPVFGESTYSVSVPENSPPNTPVIRLNASDPDEGTNGQVVYSFYGYVNDRTRELFQIDPHSGLVTVTGALDYEEGHVYELDVQAKDLGPNSIPAHCKVTVSVLDTNDNPPIINLLSVNSELVEVSESAPPGYVIALVRVSDRDSGLNGRVQCRLLGNVPFRLQEYESFSTILVDGRLDREQHDQYNLTIQARDSGVPMLQSAKSFTVRITDENDNHPHFSKPYYQVIVQENNTPGAYLLSVSARDPDMGLNGSVSYQIVPSQVRDMPVFTYVSINPNSGDIYALRSFNHEQTKAFEFKVLAKDGGLPSLQSNATVRVIILDVNDNTPVITAPPLINGTAEVYIPRNSGIGYLVTVVKADDYDEGENGRVTYDMTEGDRGFFEIDQVNGEVRTTRTFNENSKPSYELIVVAHDHGKTSLSASALVLIYLSPALDAQESMGSVNLSLIFIIALGSIAGILFVTMIFVAIKCKRDNKEIRTYNCSNCLTITCLLGCFIKGQNSKCLHCISVSPNSEEQDKKAEEKVSLRGKRIAEYSYGHQKKSSKKKKISKNDIRLVPRDVEETDKMNVVSCSSLTSSLNYFDYHQQTLPLGCRRSESTFLNVENQNTRNTTASHIYHHSFNSQGPQQPDLIINGVPLPETENYSFDSNYVNSRAHLIKSSSTFKDLEGNSLKDSGHEESDQTDSEHDVQRSLYCDTAVNDVLNTSVTSMGSQMPDHDQNEGFHCREECRILGHSDRCWMPRNPMPTRSKSPEHVRNIIALSIEATAADVEAYDDCGPTKRTFATFGKDVSSHRAEERPILKGKRTVDVTICSPKVNSAIREAGNGCEAISPVTSPLHLKSPLPTKPSISYTVALAPPAHDLEHHANSGASRPSEAEPRGADNEKVMHEVNPIRKDGRDKESPSVKRLKDIVL
Consider B2, for which the binding result in assay [1] is recorded as “binds”.

B3: PCDH19 (endogenous, mouse P10 cortex) (protein, UniProt Q80TF3 22-1145)
chain: B2 chain
As to B3, the binding entry in assay [2] is reported as “binds”.
